According to patent US6559126B2 (Institut Pasteur, priority 2000, dated 2003):
Some results were stated once for a whole list of compounds, not compound by compound.

System: KDR
Assay: Competition assay of 125I-VEGF binding to CHO-KDR cells
Details: displacement curves, FIGS. 10-11
Method: Competition assay of binding to CHO-KDR cells. CHO-KDR cells were seeded in 24-well plates at a density of 5×10^5 cells/well. After 24 h, subconfluent plates were transferred at 4 C., and all subsequent operations were done at 4 C. […] The amount of radioactivity bound to the cells was counted in a gamma counter (LKB 1261 Multigamma). The receptor affinity and the number of binding sites per cell were determined by Scatchard's analysis (Scatchard, 1986).

| Substance | efficiency of V1 analogues in displacing 125I-VEGF165 from CHO-KDR cells |
| --- | --- |
| AAWLPPR [A2] | relatively tolerant to alanine substitution |
| ATALPPR [A3] | relatively tolerant to alanine substitution |
| ATWAPPR [A4] | relatively tolerant to alanine substitution |
| ATWLAPR [A5] | relatively tolerant to alanine substitution |
| ATWLPAR [A6] | relatively tolerant to alanine substitution |
